Residue numbers refer to the chain shown, from its start. These are yes or no findings as the source states them, for the method shown. In cells and extracts the contact can be indirect. Some results given as binding are weak or reduced against the parent protein; the word gives no strength. Where a sequence is shown, tags or fusion partners need not be part of it.
Key:
[1] = target: T1, C9orf72-HA (C-terminal HA-tagged C9orf72) (UniProt Q96LT7); test: co-IP; HA-IP (anti-HA beads, overnight, 4°C, MCLB buffer) from C9orf72-HA expressing parental and SMCR8 KO 293T cells treated with DMSO or Btz; immunoblot
T1 sequence: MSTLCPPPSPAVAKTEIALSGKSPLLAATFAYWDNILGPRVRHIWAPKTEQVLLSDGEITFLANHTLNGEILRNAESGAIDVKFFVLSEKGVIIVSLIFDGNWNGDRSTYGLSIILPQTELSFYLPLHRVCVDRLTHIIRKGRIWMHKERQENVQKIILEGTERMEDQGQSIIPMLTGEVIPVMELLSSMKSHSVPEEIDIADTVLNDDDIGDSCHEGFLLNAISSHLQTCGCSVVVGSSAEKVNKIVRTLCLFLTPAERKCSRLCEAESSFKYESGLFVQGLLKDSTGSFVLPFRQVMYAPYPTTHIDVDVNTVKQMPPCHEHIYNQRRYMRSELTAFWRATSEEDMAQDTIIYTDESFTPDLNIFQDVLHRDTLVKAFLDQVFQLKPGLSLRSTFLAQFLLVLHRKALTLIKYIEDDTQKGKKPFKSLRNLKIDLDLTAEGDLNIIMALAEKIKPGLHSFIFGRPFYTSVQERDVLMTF

By UniProt entry, the sequences of proteins in these tests, tags left out.
UniProt Q7L5D6: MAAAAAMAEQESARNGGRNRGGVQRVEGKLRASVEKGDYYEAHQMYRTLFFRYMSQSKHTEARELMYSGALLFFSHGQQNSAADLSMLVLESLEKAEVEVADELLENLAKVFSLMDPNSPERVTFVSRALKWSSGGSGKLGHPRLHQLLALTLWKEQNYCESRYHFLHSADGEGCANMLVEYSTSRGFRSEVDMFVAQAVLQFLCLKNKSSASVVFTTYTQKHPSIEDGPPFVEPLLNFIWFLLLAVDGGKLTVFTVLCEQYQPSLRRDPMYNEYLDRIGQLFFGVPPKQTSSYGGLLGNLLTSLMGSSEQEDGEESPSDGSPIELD
UniProt O95071: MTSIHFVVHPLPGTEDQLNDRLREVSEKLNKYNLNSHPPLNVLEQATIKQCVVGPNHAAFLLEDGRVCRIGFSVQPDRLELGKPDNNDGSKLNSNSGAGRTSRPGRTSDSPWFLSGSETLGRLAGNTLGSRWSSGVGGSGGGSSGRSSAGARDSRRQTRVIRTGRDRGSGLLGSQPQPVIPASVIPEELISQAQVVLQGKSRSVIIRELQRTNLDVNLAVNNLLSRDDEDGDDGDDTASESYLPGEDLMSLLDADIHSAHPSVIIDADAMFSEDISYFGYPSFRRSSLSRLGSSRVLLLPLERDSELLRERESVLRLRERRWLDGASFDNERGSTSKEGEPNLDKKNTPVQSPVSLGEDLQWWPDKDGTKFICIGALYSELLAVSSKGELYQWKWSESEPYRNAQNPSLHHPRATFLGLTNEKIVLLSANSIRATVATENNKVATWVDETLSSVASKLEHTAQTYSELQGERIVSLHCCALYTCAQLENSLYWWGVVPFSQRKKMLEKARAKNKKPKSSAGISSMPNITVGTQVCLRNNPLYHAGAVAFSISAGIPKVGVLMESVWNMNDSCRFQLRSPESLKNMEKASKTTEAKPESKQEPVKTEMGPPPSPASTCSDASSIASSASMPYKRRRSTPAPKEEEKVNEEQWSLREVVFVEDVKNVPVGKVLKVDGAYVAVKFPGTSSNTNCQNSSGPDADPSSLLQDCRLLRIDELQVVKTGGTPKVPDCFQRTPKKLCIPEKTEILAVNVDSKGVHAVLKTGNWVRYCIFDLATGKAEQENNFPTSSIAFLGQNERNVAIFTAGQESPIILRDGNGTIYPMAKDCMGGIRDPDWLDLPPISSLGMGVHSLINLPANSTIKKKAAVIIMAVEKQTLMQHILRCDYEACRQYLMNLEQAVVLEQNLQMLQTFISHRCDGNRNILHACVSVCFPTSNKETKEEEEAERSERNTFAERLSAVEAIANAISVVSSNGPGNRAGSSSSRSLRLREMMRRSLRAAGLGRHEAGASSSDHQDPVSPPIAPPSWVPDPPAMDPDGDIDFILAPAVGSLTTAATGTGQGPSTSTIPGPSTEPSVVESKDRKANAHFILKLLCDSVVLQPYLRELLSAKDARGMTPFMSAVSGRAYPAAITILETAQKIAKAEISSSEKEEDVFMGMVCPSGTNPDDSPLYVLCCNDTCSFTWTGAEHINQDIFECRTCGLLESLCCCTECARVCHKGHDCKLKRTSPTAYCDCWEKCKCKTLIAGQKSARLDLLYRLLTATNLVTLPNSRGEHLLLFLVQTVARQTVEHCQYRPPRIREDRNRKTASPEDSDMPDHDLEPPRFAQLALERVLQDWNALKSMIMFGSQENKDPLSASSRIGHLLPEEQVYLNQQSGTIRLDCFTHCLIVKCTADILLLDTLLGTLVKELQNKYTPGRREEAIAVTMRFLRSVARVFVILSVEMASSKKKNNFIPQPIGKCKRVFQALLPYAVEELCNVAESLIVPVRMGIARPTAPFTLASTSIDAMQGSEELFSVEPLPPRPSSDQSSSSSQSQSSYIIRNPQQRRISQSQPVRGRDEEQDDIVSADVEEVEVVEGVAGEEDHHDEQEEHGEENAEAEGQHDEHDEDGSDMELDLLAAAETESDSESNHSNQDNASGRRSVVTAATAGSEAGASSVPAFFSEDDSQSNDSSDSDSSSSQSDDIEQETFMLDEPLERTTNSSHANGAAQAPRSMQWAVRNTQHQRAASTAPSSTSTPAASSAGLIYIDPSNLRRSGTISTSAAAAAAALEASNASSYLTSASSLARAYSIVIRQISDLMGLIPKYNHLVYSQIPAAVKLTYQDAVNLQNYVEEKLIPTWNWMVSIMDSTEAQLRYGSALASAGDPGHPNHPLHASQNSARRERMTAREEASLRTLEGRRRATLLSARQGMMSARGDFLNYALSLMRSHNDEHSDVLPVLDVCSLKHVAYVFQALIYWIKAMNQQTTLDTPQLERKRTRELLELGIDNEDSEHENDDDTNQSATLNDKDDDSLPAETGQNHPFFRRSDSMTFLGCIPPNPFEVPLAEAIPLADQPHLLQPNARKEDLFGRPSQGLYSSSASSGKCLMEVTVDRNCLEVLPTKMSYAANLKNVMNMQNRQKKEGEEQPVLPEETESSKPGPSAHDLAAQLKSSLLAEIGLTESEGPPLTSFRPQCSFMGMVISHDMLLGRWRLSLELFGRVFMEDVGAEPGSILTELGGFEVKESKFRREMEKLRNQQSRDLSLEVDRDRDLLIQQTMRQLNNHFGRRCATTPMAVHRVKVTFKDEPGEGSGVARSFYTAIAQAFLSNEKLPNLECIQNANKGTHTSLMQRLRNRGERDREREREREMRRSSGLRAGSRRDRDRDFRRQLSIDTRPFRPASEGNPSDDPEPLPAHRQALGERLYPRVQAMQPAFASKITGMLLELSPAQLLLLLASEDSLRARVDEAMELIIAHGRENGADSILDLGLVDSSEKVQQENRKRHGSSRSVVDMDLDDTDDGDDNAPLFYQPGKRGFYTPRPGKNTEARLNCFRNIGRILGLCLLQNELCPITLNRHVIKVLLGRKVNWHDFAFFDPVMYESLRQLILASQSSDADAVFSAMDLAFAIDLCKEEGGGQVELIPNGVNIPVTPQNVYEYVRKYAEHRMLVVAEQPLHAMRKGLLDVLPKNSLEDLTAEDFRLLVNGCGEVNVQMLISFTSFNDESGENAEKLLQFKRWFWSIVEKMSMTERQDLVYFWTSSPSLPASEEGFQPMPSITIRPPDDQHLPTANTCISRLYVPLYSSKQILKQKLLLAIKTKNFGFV
UniProt P46379: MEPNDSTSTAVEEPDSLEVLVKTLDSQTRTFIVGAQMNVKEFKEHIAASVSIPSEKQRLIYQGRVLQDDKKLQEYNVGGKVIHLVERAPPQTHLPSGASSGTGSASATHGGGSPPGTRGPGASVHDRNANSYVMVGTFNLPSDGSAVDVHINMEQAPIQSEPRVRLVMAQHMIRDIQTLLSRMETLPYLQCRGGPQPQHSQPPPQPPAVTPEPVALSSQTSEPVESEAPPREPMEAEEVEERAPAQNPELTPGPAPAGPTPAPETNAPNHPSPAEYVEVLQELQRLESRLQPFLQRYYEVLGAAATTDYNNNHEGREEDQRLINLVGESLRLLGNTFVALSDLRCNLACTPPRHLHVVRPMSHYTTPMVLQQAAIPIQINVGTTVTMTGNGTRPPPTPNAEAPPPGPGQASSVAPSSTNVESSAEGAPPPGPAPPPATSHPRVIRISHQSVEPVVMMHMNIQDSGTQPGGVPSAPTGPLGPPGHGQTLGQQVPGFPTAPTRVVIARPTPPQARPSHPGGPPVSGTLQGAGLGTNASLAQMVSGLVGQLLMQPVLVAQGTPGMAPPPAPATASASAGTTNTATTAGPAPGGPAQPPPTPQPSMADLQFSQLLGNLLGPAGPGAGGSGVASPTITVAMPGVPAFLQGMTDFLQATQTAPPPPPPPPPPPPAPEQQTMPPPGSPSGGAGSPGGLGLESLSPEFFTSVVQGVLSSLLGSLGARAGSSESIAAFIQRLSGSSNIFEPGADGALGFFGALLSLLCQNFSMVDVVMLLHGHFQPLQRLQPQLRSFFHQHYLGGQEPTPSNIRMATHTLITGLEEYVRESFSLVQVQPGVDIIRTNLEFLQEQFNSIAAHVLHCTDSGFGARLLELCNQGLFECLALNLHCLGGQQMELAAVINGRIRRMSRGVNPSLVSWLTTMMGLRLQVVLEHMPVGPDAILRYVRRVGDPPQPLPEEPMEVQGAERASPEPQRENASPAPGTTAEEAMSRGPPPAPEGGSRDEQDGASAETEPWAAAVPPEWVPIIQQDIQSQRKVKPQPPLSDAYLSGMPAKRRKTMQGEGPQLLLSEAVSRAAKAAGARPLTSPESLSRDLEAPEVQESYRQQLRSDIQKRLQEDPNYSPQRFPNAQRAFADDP
UniProt O43765: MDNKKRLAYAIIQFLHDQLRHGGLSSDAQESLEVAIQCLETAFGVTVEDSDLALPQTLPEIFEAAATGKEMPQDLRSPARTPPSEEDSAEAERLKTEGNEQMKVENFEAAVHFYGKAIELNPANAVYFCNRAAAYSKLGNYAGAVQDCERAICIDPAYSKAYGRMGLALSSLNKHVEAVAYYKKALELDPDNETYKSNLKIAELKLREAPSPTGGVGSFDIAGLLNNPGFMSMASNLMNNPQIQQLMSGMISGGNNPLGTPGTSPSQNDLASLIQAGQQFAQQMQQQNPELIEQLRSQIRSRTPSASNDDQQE

[2] = target: T1, C9orf72-HA (C-terminal HA-tagged C9orf72); test: co-IP; HA-IP under mild conditions (MCLB buffer) from Btz-treated C9orf72-HA SMCR8 KO cells; beads treated or not with the catalytic domain of USP2 (500 nM, 1 h, 30°C); immunoblot
[3] = target: T2, GFP-C9orf72 mutant K156R, K388R, K414R, K422R (KR4) (UniProt Q96LT7); test: pull-down; Streptavidin agarose loaded with biotinylated GFP VHH nanobodies, incubated with 293T lysates in MCLB buffer overnight at 4°C; cells treated with DMSO or Btz; immunoblot
T2 sequence: T1 sequence with K156R, K388R, K414R, K422R

[4] = target: T3, GFP-C9orf72 wild-type (WT) (UniProt Q96LT7); test: as above
T3 sequence: T1 sequence

GFP-SMCR8 = target: T4, GFP-SMCR8 (UniProt Q8TEV9); test: as above
T4 sequence: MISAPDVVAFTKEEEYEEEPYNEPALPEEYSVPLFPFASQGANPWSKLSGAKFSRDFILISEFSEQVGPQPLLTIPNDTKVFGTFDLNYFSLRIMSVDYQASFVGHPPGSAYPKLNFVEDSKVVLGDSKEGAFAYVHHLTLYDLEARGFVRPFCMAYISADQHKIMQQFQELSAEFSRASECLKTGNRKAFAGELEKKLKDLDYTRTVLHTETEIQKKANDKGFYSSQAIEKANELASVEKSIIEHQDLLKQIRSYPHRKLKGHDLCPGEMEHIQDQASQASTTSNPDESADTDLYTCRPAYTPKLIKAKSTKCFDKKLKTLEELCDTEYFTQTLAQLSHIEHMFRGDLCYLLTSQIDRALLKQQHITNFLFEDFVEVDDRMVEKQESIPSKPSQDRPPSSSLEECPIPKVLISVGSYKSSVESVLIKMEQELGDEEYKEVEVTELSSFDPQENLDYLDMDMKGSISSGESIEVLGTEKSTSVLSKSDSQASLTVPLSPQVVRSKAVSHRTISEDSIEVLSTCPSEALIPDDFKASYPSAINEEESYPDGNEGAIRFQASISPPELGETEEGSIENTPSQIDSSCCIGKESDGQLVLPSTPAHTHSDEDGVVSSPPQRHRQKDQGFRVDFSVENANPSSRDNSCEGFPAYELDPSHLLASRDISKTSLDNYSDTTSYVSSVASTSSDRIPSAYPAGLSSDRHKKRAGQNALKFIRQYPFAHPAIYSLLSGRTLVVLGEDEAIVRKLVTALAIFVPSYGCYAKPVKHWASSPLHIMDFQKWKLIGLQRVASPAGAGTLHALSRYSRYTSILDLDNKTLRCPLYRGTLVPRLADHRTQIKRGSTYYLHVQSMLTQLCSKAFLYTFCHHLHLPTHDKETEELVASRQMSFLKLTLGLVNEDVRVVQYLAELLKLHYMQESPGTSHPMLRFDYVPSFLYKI

binding [1]	binding [2]	binding [3]	binding [4]	binding (GFP-SMCR8)	Substance
binds					GET4, endogenous (from UniProt Q7L5D6 1-327)
binds	binds	binds	binds	binds	UBR5 (E3 ligase), endogenous (from UniProt O95071 1-2799) (enzyme)

Second part, the substance before the results:

Substance	binding [1]	binding [2]	binding [3]	binding [4]	binding (GFP-SMCR8)
BAG6, endogenous (from UniProt P46379 1-1132)	binds	binds	binds	binds	binds
PSMC4 (proteasomal subunit), endogenous (from UniProt P43686 1-418)	binds				
SGTA, endogenous (from UniProt O43765 1-313)	binds				
